Source: the supplement of paper PMC10849652
The list shows a part of the results.

Sequences of proteins named here, by UniProt entry; tags and fusion partners are left off. A change or cut given only in a name is not applied to a line headed by its entry.
UniProt Q9Y3B2, whole entry, looked up: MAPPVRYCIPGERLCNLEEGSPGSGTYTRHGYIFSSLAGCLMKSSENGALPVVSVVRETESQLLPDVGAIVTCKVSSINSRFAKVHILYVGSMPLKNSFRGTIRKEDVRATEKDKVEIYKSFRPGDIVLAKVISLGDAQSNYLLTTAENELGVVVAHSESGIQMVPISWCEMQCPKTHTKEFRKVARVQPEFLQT
UniProt Q9NSI2: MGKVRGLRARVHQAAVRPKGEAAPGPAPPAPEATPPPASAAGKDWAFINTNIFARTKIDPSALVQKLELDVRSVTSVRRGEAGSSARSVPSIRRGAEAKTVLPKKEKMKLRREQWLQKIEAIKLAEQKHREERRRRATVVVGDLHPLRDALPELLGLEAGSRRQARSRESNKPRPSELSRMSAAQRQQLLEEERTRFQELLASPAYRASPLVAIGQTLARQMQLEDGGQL
UniProt Q8IYI6: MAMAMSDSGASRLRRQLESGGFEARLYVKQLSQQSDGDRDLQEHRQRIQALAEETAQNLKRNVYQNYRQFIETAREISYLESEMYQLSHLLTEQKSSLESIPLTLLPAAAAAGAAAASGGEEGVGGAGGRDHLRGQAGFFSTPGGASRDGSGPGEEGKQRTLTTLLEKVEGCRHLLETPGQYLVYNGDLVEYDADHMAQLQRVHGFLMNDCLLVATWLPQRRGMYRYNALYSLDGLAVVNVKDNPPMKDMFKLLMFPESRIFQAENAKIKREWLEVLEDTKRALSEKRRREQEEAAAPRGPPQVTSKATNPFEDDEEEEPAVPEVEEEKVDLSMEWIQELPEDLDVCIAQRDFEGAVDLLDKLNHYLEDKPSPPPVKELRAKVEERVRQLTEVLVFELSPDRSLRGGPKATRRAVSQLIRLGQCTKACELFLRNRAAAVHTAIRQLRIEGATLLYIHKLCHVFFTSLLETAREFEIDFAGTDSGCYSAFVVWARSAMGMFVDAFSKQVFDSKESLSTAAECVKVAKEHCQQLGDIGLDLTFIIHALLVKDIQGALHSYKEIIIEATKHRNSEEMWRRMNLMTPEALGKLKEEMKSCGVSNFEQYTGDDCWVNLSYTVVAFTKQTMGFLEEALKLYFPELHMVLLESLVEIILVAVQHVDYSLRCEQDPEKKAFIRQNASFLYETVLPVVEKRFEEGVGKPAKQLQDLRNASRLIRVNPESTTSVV
UniProt Q9Y624, whole entry, looked up, stated change not applied: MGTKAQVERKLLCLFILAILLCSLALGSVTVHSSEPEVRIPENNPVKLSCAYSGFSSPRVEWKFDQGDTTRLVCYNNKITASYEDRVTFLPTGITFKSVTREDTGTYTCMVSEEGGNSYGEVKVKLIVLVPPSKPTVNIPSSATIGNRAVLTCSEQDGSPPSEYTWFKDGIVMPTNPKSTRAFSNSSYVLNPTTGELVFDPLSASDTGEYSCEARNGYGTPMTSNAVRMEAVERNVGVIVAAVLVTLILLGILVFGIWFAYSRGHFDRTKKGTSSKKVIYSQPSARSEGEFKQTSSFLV
UniProt Q01469, whole entry, looked up: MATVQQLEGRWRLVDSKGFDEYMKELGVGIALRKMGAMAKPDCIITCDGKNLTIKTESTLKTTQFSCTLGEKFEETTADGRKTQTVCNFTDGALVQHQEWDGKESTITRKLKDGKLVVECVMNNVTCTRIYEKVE
UniProt Q96A26: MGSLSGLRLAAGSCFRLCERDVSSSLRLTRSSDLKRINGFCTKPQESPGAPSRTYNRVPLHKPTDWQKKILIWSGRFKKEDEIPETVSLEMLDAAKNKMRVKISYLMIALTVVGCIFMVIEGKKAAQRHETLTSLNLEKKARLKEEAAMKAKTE
UniProt Q5BKY9: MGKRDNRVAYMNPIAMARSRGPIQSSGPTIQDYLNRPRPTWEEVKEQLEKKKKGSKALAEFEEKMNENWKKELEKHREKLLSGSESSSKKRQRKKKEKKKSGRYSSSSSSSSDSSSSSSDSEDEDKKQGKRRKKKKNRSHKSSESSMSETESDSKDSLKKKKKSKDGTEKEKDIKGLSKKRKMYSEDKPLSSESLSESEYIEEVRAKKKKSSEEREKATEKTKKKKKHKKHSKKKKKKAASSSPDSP
UniProt P11474: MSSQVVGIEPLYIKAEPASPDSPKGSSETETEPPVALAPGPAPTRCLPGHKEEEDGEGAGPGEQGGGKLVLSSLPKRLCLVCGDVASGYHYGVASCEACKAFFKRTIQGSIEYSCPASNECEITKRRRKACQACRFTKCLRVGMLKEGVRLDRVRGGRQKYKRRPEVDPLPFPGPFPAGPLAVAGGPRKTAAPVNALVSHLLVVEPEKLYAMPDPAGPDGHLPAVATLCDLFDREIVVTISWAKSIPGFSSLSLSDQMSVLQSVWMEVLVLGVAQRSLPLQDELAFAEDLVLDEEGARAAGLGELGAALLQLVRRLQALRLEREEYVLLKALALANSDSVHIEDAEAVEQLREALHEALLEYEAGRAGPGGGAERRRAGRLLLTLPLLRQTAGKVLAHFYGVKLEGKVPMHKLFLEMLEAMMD
UniProt Q9UPT5: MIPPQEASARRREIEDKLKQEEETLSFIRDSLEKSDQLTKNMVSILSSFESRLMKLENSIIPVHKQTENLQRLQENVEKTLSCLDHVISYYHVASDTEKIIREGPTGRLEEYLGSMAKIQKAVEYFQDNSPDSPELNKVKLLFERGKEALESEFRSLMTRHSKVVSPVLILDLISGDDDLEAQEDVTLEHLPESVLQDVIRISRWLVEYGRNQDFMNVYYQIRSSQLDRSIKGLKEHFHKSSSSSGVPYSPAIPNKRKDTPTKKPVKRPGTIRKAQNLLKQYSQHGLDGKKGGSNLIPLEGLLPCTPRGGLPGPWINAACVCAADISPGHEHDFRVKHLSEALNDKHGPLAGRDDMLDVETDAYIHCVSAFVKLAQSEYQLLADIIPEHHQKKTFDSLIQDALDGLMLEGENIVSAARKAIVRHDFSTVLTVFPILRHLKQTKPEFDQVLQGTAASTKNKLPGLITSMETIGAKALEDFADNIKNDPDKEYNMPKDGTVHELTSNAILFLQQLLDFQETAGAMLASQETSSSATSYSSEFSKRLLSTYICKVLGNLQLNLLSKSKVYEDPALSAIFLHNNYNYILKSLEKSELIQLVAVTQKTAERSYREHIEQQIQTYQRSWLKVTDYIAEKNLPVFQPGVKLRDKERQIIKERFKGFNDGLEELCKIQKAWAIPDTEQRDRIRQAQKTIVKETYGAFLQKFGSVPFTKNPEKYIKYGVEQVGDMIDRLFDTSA
UniProt Q9GZU8: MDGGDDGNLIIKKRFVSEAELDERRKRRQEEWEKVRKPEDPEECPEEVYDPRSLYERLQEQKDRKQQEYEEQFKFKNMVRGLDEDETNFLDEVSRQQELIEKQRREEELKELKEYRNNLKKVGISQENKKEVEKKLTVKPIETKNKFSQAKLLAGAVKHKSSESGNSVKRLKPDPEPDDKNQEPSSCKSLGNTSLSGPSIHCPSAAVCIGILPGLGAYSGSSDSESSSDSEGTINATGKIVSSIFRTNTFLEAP
UniProt P12259: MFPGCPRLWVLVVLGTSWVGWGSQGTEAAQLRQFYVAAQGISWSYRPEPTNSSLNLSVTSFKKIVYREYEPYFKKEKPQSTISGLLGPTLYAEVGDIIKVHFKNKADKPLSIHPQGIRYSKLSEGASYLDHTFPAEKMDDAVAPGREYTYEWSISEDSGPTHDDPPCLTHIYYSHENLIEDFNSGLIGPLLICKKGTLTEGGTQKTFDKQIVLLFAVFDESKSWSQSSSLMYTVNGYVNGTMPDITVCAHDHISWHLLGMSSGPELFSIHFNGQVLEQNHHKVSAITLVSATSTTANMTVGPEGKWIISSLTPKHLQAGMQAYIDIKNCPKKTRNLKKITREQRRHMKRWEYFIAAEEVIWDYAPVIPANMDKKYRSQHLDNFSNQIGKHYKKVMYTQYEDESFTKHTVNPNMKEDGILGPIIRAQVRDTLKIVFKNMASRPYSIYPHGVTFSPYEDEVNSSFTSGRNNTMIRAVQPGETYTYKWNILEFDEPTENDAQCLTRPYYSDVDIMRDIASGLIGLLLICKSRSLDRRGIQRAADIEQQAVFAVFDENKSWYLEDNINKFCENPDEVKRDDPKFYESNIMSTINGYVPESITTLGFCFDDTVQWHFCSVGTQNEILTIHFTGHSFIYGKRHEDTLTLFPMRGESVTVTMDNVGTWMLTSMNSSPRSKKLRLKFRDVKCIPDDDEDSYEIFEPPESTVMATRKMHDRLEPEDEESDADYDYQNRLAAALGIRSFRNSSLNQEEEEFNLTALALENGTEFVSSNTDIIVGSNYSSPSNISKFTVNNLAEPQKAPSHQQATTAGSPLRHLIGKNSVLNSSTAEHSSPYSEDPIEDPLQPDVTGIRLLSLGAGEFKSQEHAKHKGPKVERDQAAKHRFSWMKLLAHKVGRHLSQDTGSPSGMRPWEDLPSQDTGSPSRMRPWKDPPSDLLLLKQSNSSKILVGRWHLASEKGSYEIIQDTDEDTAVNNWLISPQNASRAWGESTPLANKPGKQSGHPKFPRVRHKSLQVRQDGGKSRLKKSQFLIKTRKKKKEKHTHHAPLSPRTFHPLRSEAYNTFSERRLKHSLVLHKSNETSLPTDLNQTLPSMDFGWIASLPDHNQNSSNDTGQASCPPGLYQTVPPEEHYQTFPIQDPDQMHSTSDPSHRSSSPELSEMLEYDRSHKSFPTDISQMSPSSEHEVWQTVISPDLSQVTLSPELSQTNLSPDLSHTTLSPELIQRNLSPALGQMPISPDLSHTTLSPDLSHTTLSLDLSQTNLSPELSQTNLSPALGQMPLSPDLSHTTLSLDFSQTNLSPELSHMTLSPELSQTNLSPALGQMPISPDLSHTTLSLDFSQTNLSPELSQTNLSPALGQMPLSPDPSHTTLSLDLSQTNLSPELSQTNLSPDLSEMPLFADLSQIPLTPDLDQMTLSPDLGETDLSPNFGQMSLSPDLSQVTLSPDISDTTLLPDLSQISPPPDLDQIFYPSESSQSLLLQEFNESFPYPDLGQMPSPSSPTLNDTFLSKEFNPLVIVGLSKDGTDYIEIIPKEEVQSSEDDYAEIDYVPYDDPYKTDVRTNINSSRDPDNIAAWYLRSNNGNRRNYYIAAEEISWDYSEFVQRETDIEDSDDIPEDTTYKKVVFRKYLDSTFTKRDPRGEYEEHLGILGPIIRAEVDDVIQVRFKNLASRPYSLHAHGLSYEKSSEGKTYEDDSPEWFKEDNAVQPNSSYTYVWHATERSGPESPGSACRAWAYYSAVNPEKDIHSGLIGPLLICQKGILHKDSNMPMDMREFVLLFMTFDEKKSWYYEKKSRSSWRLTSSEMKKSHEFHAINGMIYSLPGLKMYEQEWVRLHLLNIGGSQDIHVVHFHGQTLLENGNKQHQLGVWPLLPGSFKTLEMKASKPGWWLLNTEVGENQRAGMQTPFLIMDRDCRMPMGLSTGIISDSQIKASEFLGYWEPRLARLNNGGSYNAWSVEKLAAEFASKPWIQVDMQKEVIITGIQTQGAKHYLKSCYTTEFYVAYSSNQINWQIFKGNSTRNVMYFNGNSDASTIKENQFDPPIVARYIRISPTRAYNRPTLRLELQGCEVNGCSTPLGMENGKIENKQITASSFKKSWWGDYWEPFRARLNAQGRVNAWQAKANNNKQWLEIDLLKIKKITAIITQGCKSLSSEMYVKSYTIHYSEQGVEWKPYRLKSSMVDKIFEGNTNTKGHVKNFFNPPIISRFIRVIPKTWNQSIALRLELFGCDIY
UniProt Q9NWS6: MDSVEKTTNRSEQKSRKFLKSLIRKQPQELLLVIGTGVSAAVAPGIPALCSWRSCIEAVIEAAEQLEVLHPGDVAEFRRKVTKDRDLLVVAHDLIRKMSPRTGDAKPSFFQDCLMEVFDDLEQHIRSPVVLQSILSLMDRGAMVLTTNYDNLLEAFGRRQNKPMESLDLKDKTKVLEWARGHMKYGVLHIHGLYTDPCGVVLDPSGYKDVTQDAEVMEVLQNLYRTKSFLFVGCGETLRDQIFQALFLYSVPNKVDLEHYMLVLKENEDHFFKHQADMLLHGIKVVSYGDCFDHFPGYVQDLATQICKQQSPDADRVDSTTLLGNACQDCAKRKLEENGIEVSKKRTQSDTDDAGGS
UniProt Q9H0X4: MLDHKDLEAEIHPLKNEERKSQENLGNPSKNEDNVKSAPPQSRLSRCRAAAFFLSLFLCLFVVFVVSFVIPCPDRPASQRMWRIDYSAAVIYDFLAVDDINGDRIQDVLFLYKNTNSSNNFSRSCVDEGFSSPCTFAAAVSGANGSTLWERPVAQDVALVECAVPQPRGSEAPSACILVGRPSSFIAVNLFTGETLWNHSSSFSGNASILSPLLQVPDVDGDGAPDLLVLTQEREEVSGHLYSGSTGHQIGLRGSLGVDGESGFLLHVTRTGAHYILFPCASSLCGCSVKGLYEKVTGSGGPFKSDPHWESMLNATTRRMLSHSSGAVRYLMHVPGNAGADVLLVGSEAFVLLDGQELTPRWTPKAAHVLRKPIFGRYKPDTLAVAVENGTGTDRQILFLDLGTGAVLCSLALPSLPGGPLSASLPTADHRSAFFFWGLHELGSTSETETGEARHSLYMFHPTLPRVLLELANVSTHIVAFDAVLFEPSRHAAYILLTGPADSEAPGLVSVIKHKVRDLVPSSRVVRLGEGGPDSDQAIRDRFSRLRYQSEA

Experiments:
Assay in all cases: log2 fold change, soluble protein after heating vs DMSO (PISA); higher = thermal stabilisation; K562 lysate, 10 uM; active = over 0.2 and 3.5 SD of the protein, either way, in both replicates (recomputed)
[1] = compound: C#Cc1cccc(Nc2ncnc3cc(OCCOC)c(OCCOC)cc23)c1 [erlotinib]
Outline: (§1)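 Pellets of K562 cells were dounce-homogenised in PBS pH 7.4 with 1 mM MgCl2, and the crude extract was held at 1 mg/mL protein for a 30 min treatment with 10 μM compound. Aliquots were heated for 3 min over 48°C-58°C and pooled before NP-40 was added to 0.5% at 4°C. The supernatant from 21,000xg for 90 min was quantified by TMTpro 16plex LC-MS/MS with channel sums equalised. Values are reported from duplicates as log-two fold change in thermal stability relative to solvent controls.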

[2] = compound: C/C(=N\NC(=O)C1=CC(=CC=C1)S(=O)(=O)N2CCOCC2)/C3=C(C=CC(=C3)Cl)O
Outline: as §1

[3] = compound: C1=CC(=CC=C1C2=NC3=C(N2)C=C(C=C3)C(=O)N)OC4=CC=C(C=C4)Cl
Outline: as §1

[4] = compound: C1=CC2=C(C=CC(=C2)/C=C\3/C(=O)NC(=NCC4=CC=CS4)S3)N=C1
Outline: as §1

[5] = compound: C1=CC2=NC=CN=C2C=C1/C=C/3\C(=O)NC(=O)S3
Outline: as §1

[6] = compound: C1=CC=C(C=C1)C2=NC(=C(N2)C3=CC=NC=C3)C4=CC(=C(C=C4)Cl)O
Outline: as §1

[7] = compound: C1=CC=C2C(=C1)C3=NNC4=CC=CC(=C43)C2=O
Outline: as §1

[8] = compound: C1CCN(C1)C(=O)NC2=CC=CC(=C2)NC3=NC=C(C(=N3)NCCC4=CN=CN4)Br
Outline: as §1

[9] = compound: C1CN(CCC1(CC2=CC=C(C=C2)Cl)N)C3=NC=NC4=C3C=CN4
Outline: as §1

[10] = compound: C1COCCN1CCN2C3=CC=CC=C3N=C2NC(=O)C4=CC(=CC=C4)[N+](=O)[O-] [IRAK-1-4 Inhibitor I]
Outline: as §1

[11] = compound: C=CC(=O)N1CCC[C@@H](n2nc(-c3ccc(Oc4ccccc4)cc3)c3c(N)ncnc32)C1 [ibrutinib]
Outline: as §1

[12] = compound: CC(=O)c1cnc2ccc(-c3cc(Cl)c(O)c(Cl)c3)nc2c1N[C@H]1CC[C@H](CN(C)C)CC1
Outline: as §1

[13] = compound: CC(C)(C)Cn1c(N)nc2ccc(-c3[nH]c(C(C)(C)C)nc3-c3ccc(F)cc3)nc21 [ralimetinib]
Outline: as §1

[14] = compound: CC(C)(O)CC(=O)NCCn1ccc2ncnc(Nc3ccc(Oc4cccc(C(F)(F)F)c4)c(Cl)c3)c21
Outline: as §1

[15] = compound: CC(C)C1=C2N=C(C=C(N2N=C1)NCC3=CC=CC=C3)NCCCCCCN
Outline: as §1

[16] = compound: CC1=C(C(CC(=O)N1)C2=CC=C(C=C2)C(F)(F)F)C(=O)NC3=C(C=C4C(=C3)C=NN4)F
Outline: as §1

[17] = compound: CC1=C(C2=C(C=C1)C(=O)C3=CC=CC=C3N2CCCN)C
Outline: as §1

[18] = compound: CC1=C(C=C(C=C1)NC(=O)C2=CC(=CC=C2)C(C)(C)C#N)NC3=CC4=C(C=C3)N=CN(C4=O)C
Outline: as §1

[19] = compound: CC1=C(C=C(C=C1)NC(=O)C2=CC(=CC=C2)N(C)C)NC(=O)C3=CC=C(C=C3)O
Outline: as §1

[20] = compound: CC1=CC=C(C=C1)SC2=C3C=C(SC3=CN=C2)C(=O)N
Outline: as §1

Target | log2 fold change [1] | log2 fold change [2] | log2 fold change [3] | log2 fold change [4] | log2 fold change [5] | log2 fold change [6] | log2 fold change [7] | log2 fold change [8] | log2 fold change [9] | log2 fold change [10] | log2 fold change [11] | log2 fold change [12] | log2 fold change [13] | log2 fold change [14] | log2 fold change [15] | log2 fold change [16] | log2 fold change [17] | log2 fold change [18] | log2 fold change [19] | log2 fold change [20]
FAHD2B (UniProt Q6P2I3) | inactive: -0.14 | inactive: -0.045 | inactive: 0.219 | inactive: -0.06 | inactive: 0.06 | inactive: 0.093 | inactive: -0.056 | inactive: -0.144 | inactive: 0.243 | inactive: 0.043 | inactive: -0.036 | inactive: -0.044 | inactive: 0.068 | inactive: -0.081 | inactive: -0.101 | inactive: 0.009 | inactive: 0.1 | inactive: -0.078 | inactive: 0.093 | inactive: -0.074
EXOSC10 (UniProt Q01780) | inactive: 0.047 | inactive: -0.004 | inactive: 0.021 | inactive: 0.04 | inactive: -0.015 | inactive: 0.053 | inactive: 0.038 | inactive: -0.011 | inactive: 0.005 | inactive: 0.016 | inactive: 0 | inactive: -0.022 | inactive: -0.062 | inactive: -0.096 | inactive: 0.027 | inactive: 0.014 | inactive: -0.059 | inactive: -0.019 | inactive: 0 | inactive: 0.009
EXOSC1 (UniProt Q9Y3B2) | inactive: 0.225 | inactive: 0.031 | inactive: -0.065 | inactive: -0.028 | inactive: 0.052 | inactive: 0.057 | inactive: 0.001 | inactive: -0.021 | inactive: 0.001 | inactive: -0.039 | inactive: -0.016 | inactive: 0.032 | inactive: -0.02 | inactive: 0.006 | inactive: -0.053 | inactive: -0.019 | inactive: -0.041 | inactive: -0.013 | inactive: 0.035 | inactive: 0.034
FAM207A (UniProt Q9NSI2) | inactive: -0.028 | inactive: -0.014 | inactive: 0.049 | inactive: -0.02 | inactive: -0.041 | inactive: -0.005 | inactive: -0.024 | inactive: -0.053 | inactive: 0.035 | inactive: 0.013 | inactive: 0.014 | inactive: 0.027 | inactive: 0.003 | inactive: -0.03 | inactive: -0.042 | inactive: 0.015 | inactive: 0.006 | inactive: -0.009 | inactive: -0.005 | inactive: 0.028
EXOC8 (UniProt Q8IYI6) | inactive: 0.048 | inactive: -0.007 | inactive: 0.005 | inactive: 0.014 | inactive: 0.022 | inactive: -0.024 | inactive: -0.048 | inactive: 0.013 | inactive: 0.034 | inactive: -0.004 | inactive: -0.013 | inactive: 0.012 | inactive: 0.021 | inactive: -0.02 | inactive: 0.018 | inactive: 0.011 | inactive: -0.014 | inactive: -0.022 | inactive: 0.022 | inactive: 0.002
F11R (UniProt Q9Y624) | inactive: 0.007 | inactive: -0.097 | inactive: 0.035 | inactive: -0.013 | inactive: -0.02 | inactive: -0.001 | inactive: 0.034 | inactive: 0.007 | inactive: 0.014 | inactive: 0.021 | inactive: 0.033 | inactive: -0.005 | inactive: -0.002 | inactive: -0.057 | inactive: -0.012 | inactive: -0.008 | inactive: -0.006 | inactive: 0.025 | inactive: -0.011 | inactive: -0.043
EXOC6 (UniProt Q8TAG9) | inactive: 0 | inactive: -0.045 | inactive: -0.062 | inactive: -0.058 | inactive: -0.044 | inactive: 0.005 | inactive: -0.043 | inactive: 0.018 | inactive: 0.008 | inactive: 0.013 | inactive: 0 | inactive: 0.072 | inactive: 0.034 | inactive: -0.018 | inactive: -0.049 | inactive: 0.048 | inactive: 0.049 | inactive: -0.022 | inactive: 0.042 | inactive: 0.01
FABP5 (UniProt Q01469) | inactive: -0.049 | inactive: 0.045 | inactive: -0.039 | inactive: -0.039 | inactive: 0.04 | inactive: 0.029 | inactive: 0.027 | inactive: 0.052 | inactive: 0 | inactive: -0.015 | inactive: -0.026 | inactive: -0.039 | inactive: 0.043 | inactive: 0.177 | inactive: -0.033 | inactive: 0.107 | inactive: 0.074 | inactive: 0.079 | inactive: -0.022 | inactive: -0.017
FAM162A (UniProt Q96A26) | inactive: -0.025 | inactive: 0.054 | inactive: -0.07 | inactive: -0.014 | inactive: 0.036 | inactive: 0.001 | inactive: 0.056 | inactive: 0.033 | inactive: -0.026 | inactive: -0.019 | inactive: 0.065 | inactive: 0.073 | inactive: 0.007 | inactive: 0.042 | inactive: -0.016 | inactive: 0.028 | inactive: -0.006 | inactive: -0.02 | inactive: 0.002 | inactive: 0.044
FAM133B (UniProt Q5BKY9) | inactive: -0.17 | inactive: -0.155 | inactive: -0.117 | inactive: -0.008 | inactive: -0.112 | inactive: -0.035 | inactive: 0.102 | inactive: 0.118 | inactive: -0.053 | inactive: -0.039 | inactive: -0.079 | inactive: 0.022 | inactive: 0.016 | inactive: 0.035 | inactive: -0.124 | inactive: -0.008 | inactive: -0.018 | inactive: -0.042 | inactive: -0.018 | inactive: -0.042
ESRRA (UniProt P11474) | inactive: 0.065 | inactive: 0.171 | inactive: -0.037 | inactive: 0.06 | inactive: -0.131 | inactive: -0.033 | inactive: -0.112 | inactive: -0.018 | inactive: 0.2 | inactive: 0.029 | active: -0.408 | inactive: 0.045 | inactive: 0.043 | inactive: -0.023 | inactive: 0 | inactive: -0.007 | inactive: -0.075 | inactive: 0.067 | inactive: -0.009 | inactive: 0.089
EXOC7 (UniProt Q9UPT5) | inactive: 0.048 | inactive: 0.033 | inactive: 0.032 | inactive: -0.04 | inactive: 0.046 | inactive: 0.006 | inactive: -0.071 | inactive: -0.02 | inactive: 0.019 | inactive: -0.001 | inactive: -0.005 | inactive: -0.025 | inactive: -0.005 | inactive: -0.035 | inactive: -0.005 | inactive: 0.031 | inactive: -0.026 | inactive: 0.02 | inactive: 0.051 | inactive: -0.049
FAM192A (UniProt Q9GZU8) | inactive: -0.054 | inactive: 0 | inactive: -0.054 | inactive: 0.001 | inactive: 0.004 | inactive: -0.001 | inactive: 0.056 | inactive: 0.004 | inactive: -0.012 | inactive: -0.027 | inactive: -0.004 | inactive: 0.008 | inactive: 0.021 | inactive: 0.055 | inactive: -0.014 | inactive: 0.02 | inactive: -0.005 | inactive: -0.019 | inactive: 0 | inactive: 0.016
F5 (UniProt P12259) | inactive: -0.041 | inactive: -0.015 | inactive: -0.054 | inactive: -0.06 | inactive: 0.009 | inactive: -0.015 | inactive: 0.059 | inactive: 0.026 | inactive: -0.023 | inactive: -0.048 | inactive: 0.027 | inactive: -0.021 | inactive: 0.014 | inactive: 0.15 | inactive: -0.011 | inactive: 0.026 | inactive: 0.035 | inactive: 0.006 | inactive: -0.018 | inactive: -0.043
FAM118A (UniProt Q9NWS6) | inactive: 0.03 | inactive: -0.03 | inactive: -0.016 | inactive: 0.022 | inactive: 0.029 | inactive: 0.012 | inactive: -0.006 | inactive: 0.021 | inactive: 0.048 | inactive: 0.051 | inactive: -0.024 | inactive: 0.01 | inactive: 0.041 | inactive: -0.052 | inactive: -0.01 | inactive: -0.004 | inactive: -0.052 | inactive: 0.015 | inactive: 0.014 | inactive: -0.004
FAM234A (UniProt Q9H0X4) | inactive: 0.049 | inactive: -0.064 | inactive: 0.057 | inactive: -0.019 | inactive: 0.046 | inactive: -0.026 | inactive: -0.096 | inactive: 0.043 | inactive: 0.036 | inactive: -0.035 | inactive: -0.018 | inactive: 0.036 | inactive: -0.009 | inactive: -0.087 | inactive: -0.033 | inactive: 0 | inactive: 0.012 | inactive: 0.075 | inactive: 0.025 | inactive: -0.042

Single records, from the list above. Values in the order: log2 fold change [1]	log2 fold change [2]	log2 fold change [3]	log2 fold change [4]	log2 fold change [5]	log2 fold change [6]	log2 fold change [7]	log2 fold change [8]	log2 fold change [9]	log2 fold change [10]	log2 fold change [11]	log2 fold change [12]	log2 fold change [13]	log2 fold change [14]	log2 fold change [15]	log2 fold change [16]	log2 fold change [17]	log2 fold change [18]	log2 fold change [19]	log2 fold change [20]
FABP5 (UniProt Q01469) is listed as inactive: -0.049	inactive: 0.045	inactive: -0.039	inactive: -0.039	inactive: 0.04	inactive: 0.029	inactive: 0.027	inactive: 0.052	inactive: 0	inactive: -0.015	inactive: -0.026	inactive: -0.039	inactive: 0.043	inactive: 0.177	inactive: -0.033	inactive: 0.107	inactive: 0.074	inactive: 0.079	inactive: -0.022	inactive: -0.017
EXOC7 (UniProt Q9UPT5) is listed as inactive: 0.048	inactive: 0.033	inactive: 0.032	inactive: -0.04	inactive: 0.046	inactive: 0.006	inactive: -0.071	inactive: -0.02	inactive: 0.019	inactive: -0.001	inactive: -0.005	inactive: -0.025	inactive: -0.005	inactive: -0.035	inactive: -0.005	inactive: 0.031	inactive: -0.026	inactive: 0.02	inactive: 0.051	inactive: -0.049
